# According to the supplement of paper PMC8104966:
# This is one part of the list. This data set is noisy: repeats of one test often differ as much as different tests do.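 U2OS cells carrying ACE2 were mixed with U2OS cells carrying full-length spike, and fusion was scored by imaging as the share of nuclei showing both cell types' fluorescent markers. A compound counts as an inhibitory hit when it is non-toxic and its fusion z-score falls below -3, meaning more than three standard deviations below the plate's DMSO wells.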
# Test system: U2OS ACE2 x SARS-CoV-2 spike co-culture
# Assay: cell-cell fusion (fraction fused) z-score vs plate DMSO control; higher = more fusion
# Settings: 30 µM; 5 h; toxicity class: non-toxic, passed QC
row,Structure (SMILES),cell-cell fusion (z-score)
1,CC(C)OC(=O)C(C)(C)Oc1ccc(C(=O)c2ccc(Cl)cc2)cc1 [Fenofibrate],inactive: 4.18
2,CC(C)OC(=O)C(C)(C)Oc1ccc(C(=O)c2ccc(Cl)cc2)cc1,inactive: 0.746
3,O=C(NC(=O)c1c(F)cccc1F)Nc1ccc(Cl)cc1,inactive: 3.08
4,COc1cccc2c1C(=O)c1c(O)c3c(c(O)c1C2=O)C[C@@](O)(C(=O)CO)C[C@@H]3OC1C[C@H](N)[C@H](O)[C@H](C)O1 (stereo not given in full),inactive: 3.4
5,Br.COc1ccc2c3c1O[C@H]1C[C@@H](O)C=C[C@@]31CCN(C)C2 [Galanthamine HBr],inactive: 0.216
6,C=C1C2CC[C@@]3(C)[C@H](c4ccoc4)OC(=O)C[C@]13O[C@H]1CC(O)C(C)(C)C(CC(=O)OC)[C@@]21C (stereo partly drawn) [3alpha-HYDROXY-3-DEOXYANGOLENSIC ACID METHYL ESTER],inactive: 2.27
7,O=C(O)CCCCCCCC(O)C(O)CCCCCCO (stereo not given),inactive: 2.91
8,CC(C)(CO)[C@@H](O)C(=O)NCCC(=O)[O-].[Na+] [PANTOTHENIC ACID(d) Na salt],inactive: 1.57
9,CCCCC(=O)O[C@]1(C(=O)CO)CC[C@H]2[C@@H]3CCC4=CC(=O)CC[C@]4(C)[C@H]3[C@@H](O)C[C@@]21C,inactive: 0.17
10,CC(CC(C(N)=O)(c1ccccc1)c1ccccc1)N(C)C.O=S(=O)(O)O (stereo not given),inactive: 2.02
11,O=c1c(-c2cc(O)c(O)c(O)c2)coc2cc(O)c(O)c(O)c12,inactive: 1.65
12,O=C(Nc1ccccc1)c1ccccc1O,inactive: -1.27
13,COc1ccc2oc(-c3ccccc3)c(OC)c(=O)c2c1,inactive: -1.05
14,COc1ccc(S(=O)(=O)Nc2nc(-c3cccc([N+](=O)[O-])c3)cs2)cc1OC,inactive: 2.39
15,COc1cc(Nc2ncc(F)c(Nc3ccc4c(n3)N(COP(=O)([O-])[O-])C(=O)C(C)(C)O4)n2)cc(OC)c1OC.[Na+].[Na+],inactive: 1.88
16,CC(=O)c1cc2ccccc2oc1=O,inactive: 3.68
17,Cl.N=C(N)c1ccccc1 [Benzamidine hydrochloride],inactive: 0.223
18,Cc1cccc(-c2n[nH]cc2-c2ccc3ncccc3n2)n1,inactive: 2.28
19,O=S(=O)([O-])CCSSCCS(=O)(=O)[O-].[Na+].[Na+] [Dimesna],inactive: 1.21
20,CC(Oc1c(Cl)cccc1Cl)C1=NCCN1 (stereo not given) [Lofexidine],inactive: 2.69
21,CC(=O)NC1CCSC1=O (stereo not given),inactive: 3.65
22,CCCc1cc(C(N)=S)ccn1,inactive: 0.773
23,Nc1nc(N)c2nc(-c3ccccc3)c(N)nc2n1 [Triamterene],inactive: -2.83

# Retrieved one by one from the entries so far:
row,Structure (SMILES),cell-cell fusion (z-score)
2,CC(C)OC(=O)C(C)(C)Oc1ccc(C(=O)c2ccc(Cl)cc2)cc1,inactive: 0.746
9,CCCCC(=O)O[C@]1(C(=O)CO)CC[C@H]2[C@@H]3CCC4=CC(=O)CC[C@]4(C)[C@H]3[C@@H](O)C[C@@]21C,inactive: 0.17
10,CC(CC(C(N)=O)(c1ccccc1)c1ccccc1)N(C)C.O=S(=O)(O)O (stereo not given),inactive: 2.02
8,CC(C)(CO)[C@@H](O)C(=O)NCCC(=O)[O-].[Na+] [PANTOTHENIC ACID(d) Na salt],inactive: 1.57

# Later entries.

row,Structure (SMILES),cell-cell fusion (z-score)
1,O=C([O-])[C@H](O)[C@H](O)[C@@H](O)[C@H](O)[C@H](O)CO.O=C([O-])[C@H](O)[C@H](O)[C@@H](O)[C@H](O)[C@H](O)CO.[Ca+2] [Calcium α-D-heptagluconate hydrate],inactive: 3.29
2,CC(=O)O[C@H]1C[C@@H]2CC[C@@H]3[C@H](CC[C@@]4(C)[C@H]3C[C@H]([N+]3(C)CCCCC3)[C@@H]4OC(C)=O)[C@@]2(C)C[C@@H]1[N+]1(C)CCCCC1.[Br-].[Br-] [Pancuronium bromide],inactive: 2.71
3,Cl.NCC(O)C1CCCCCCC1 (stereo not given) [2-Cyclooctyl-2-hydroxyethylamine hydrochloride],inactive: 2.37
4,C=Cc1cc2oc(-c3ccc(O)c(F)c3)nc2cc1O,inactive: 0.31
5,CCc1cncnc1N1CCN(Cc2nc3cc(C(F)(F)F)ccc3[nH]2)CC1,inactive: -1.39
6,C[C@](N)(Cc1ccc(O)c(O)c1)C(=O)O [L-(-)-α-Methyldopa],inactive: 3.37
7,O=C([O-])Cc1c[nH]cn1.[Na+],inactive: 1.54
8,CCCn1c(=O)c(C)cn2nc(N)nc12,inactive: 1.24
9,N[C@@H](CCC(=O)O)C(=O)[O-].[Na+] [L-Glutamic acid monosodium salt],inactive: 2.22
10,Nc1nc(=O)c2c(CCc3ccc(C(=O)N[C@@H](CCC(=O)[O-])C(=O)[O-])cc3)c[nH]c2[nH]1.[Na+].[Na+],inactive: 2.48
11,COc1ccc(-c2ccc3c(N4CCOCC4)nc(N4C[C@@H](C)O[C@@H](C)C4)nc3n2)cc1CO,inactive: 0.88
12,"Cn1cnc([N+](=O)[O-])c1Sc1ncnc2nc[nH]c12 [Azathioprine (Azasan, Imuran)]",inactive: 1.6
13,CN1C[C@H](CNC(=O)OCc2ccccc2)C[C@@H]2c3cccc4c3c(cn4C)C[C@H]21 [Metergoline],inactive: 1.66
14,Cc1nc2c([nH]1)CCN(C(=O)c1ccc(NC(=O)c3ccccc3-c3ccccc3)cc1)c1ccccc1-2.Cl [Conivaptan hydrochloride],inactive: 0.992
15,CON(C)C(=O)[C@H](O)[C@H](Cc1ccccc1)NC(=O)c1cc2cc(Cl)ccc2[nH]1,inactive: -2.69
16,"NC(C(=O)O)C(O)C(=O)O (stereo not drawn) [d,l-threo-3-HYDROXYASPARTIC ACID]",inactive: 2.26
17,Cc1cccc([C@H](C)c2cnc[nH]2)c1C.Cl [Dexmedetomidine HCl],inactive: 3.3
18,CN1CCN(CCCN2c3ccccc3Sc3ccc(Cl)cc32)CC1.O=S(=O)(O)CCS(=O)(=O)O,inactive: -1.15
19,Br.CCCN1CC[C@@H]2c3cc(O)ccc3CC[C@@H]21 [cis(+/-)-8-OH-PBZI hydrobromide],inactive: 3.02
20,O=C(c1ccc(Cl)cc1)N1CCN(c2ccc([N+](=O)[O-])c3ncccc23)CC1,inactive: -1.14
21,Cc1cc(NS(=O)(=O)c2ccc(N)cc2)no1 [Sulfamethoxazole],inactive: 1.62
22,Br.Br.CN(C)CCN(C)CCc1ccc(Cl)c(Cl)c1,inactive: 0.409
